According to patent US8202834B2, “Fat regulation” (FibroGen, Inc., priority 2002, dated 2012):

Experiment: Plasma triglycerides and cholesterol in rats dosed 14 days
Format: in vivo, Sprague Dawley rats

SMILES: O=C(O)CNC(=O)c1nc(Cl)c2ccccc2c1O [compound B, [(1-Chloro-4-hydroxy-isoquinoline-3-carbonyl)-amino]-acetic acid]
- plasma cholesterol: no corresponding increase
- plasma triglycerides (doses of 60, 100 and 200 mg/kg): significant increase
